# Results of single-concentration screens

Mtb glucose medium: 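Phenotypic screen: M. tuberculosis growth, glucose 7H9 medium, 3 days; the read-out is not stated. Tested at 50 µM. The record gives no direction; compounds that gave an IC50 in retests scored well above the rest, so higher reads as more growth inhibition. About 69,000 compounds were tested under these conditions; 1.1% (about 760) showed 50% or more at least once.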
Mtb cholesterol medium: 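Growth of Mycobacterium tuberculosis over 4 days (cholesterol / DPPC medium with tyloxapol); the read-out is not stated. Concentration: 50 µM. Higher reads as more growth inhibition (inferred: compounds with an IC50 in retests scored well above the rest). About 69,000 compounds were tested under these conditions; 0.54% (about 370) showed 50% or more at least once.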

Each number is a percent effect as filed.
The controls that fix the scale are not given in the record; negative values are as filed.
The compounds are a random part of those screened.
Two or more numbers in one place are separate tests of the same structure; such repeats can differ widely.

compound	Mtb glucose medium	Mtb cholesterol medium
CC(C)(NC(=O)c1cnc(-c2ccccc2F)s1)C(N)=O	-19.77% and 3.696%	-1.805%
OC1CCCOC12CCN(c1ncccn1)CC2 (stereo unspecified)	-40.62%	-20.51%
CC(=O)N1CCC(NC(=O)CN2CCCc3c(C)ccc(F)c32)CC1	-9.048%	4.208%
[H][C@@]12CN(Cc3ccc(CCC)o3)C[C@]1(C(=O)O)CN(CC1CC1)C2=O	13.14%	13.56%
Cc1csc(N(C)C(=O)C2CC(=O)N(c3ccccc3F)C2)n1 (stereo unspecified)	-15.48%	-7.131%
CCS(=O)(=O)CCNC(=O)NCc1ccccc1-n1cccn1	15.29%	9.1%
[H][C@@]12CCN(Cc3c(C)noc3C)C[C@@]1([H])O[C@H](c1ccnc(C)n1)C2	0.8668%	-13.5%
CNc1cc(CNC(=O)c2cccnc2)nc(-c2ccncc2)n1	12.49%	3.686%
O=C(O)C(F)(F)F.O=C1N(CC2CC2)CCC12CCCN(c1ncc(F)cn1)C2 (stereo unspecified)	10.89%	16.93%
O=C(Nc1cc(F)ccc1OCC1CCCO1)c1ccc(O)nc1 (stereo unspecified)	17.92%	2.209%
CCN(Cc1ccc2c(c1)OCO2)C(=O)c1ccc(C)[nH]c1=O	-0.3495%	8.103%
[H][C@@]12C[C@H](C(=O)N3CCOCC3)[C@@]([H])(CN(S(C)(=O)=O)C1)O2	24.67%	1.415%
Cc1nccc(CNC(=O)N(CCCO)C2CCc3ccccc32)n1 (stereo unspecified)	-16.86%	-15.35%
Cc1ccc2c(c1)C(N(C)C)CC21CCN(CCO)CC1.O=C(O)C(F)(F)F.O=C(O)C(F)(F)F (stereo unspecified)	-5.121% and -47.7%	-20.2%
O=S(=O)(C1CC1)N1CCc2c(CN3CCOCC3)cncc2C1	0.5443%	-9.057%
Cc1noc(C)c1C(=O)NCC(O)c1ccc(F)cc1F (stereo unspecified)	-31.16%	7.812%
O=C(O)C(F)(F)F.O=C(O)C(F)(F)F.c1nc(CN2CCC3(CC2)COCCN3CC2CC2)c[nH]1	-5.127%	-14.76%
CO[C@@H]1CCC[C@@H](N(C)C(=O)c2cn3cc(C)ccc3n2)[C@H]1O	-15.63%	-17.77% and 2.391%
Cn1cc(CNC2CCc3c(ccc(=O)n3Cc3ccncc3)C2)cn1.O=C(O)C(F)(F)F.O=C(O)C(F)(F)F (stereo unspecified)	4.749%	-9.668%
[H][C@@]12CCCN1C[C@H](Cc1ccccc1)N(Cc1cnn(C=C)c1C)C2	22.16%	-3.842%
CC(C)OC[C@H]1CCC[C@]12CN(S(=O)(=O)c1cn(C)cn1)CCO2	5.226%	11.11%
CN1CCN(Cc2ccc(-c3ccc4[nH]ccc4c3)nc2)CC1	4.808%	-11.7%
Cc1cc(C)c(C(=O)N[C@H](C(N)=O)c2ccccc2)c(=O)[nH]1	-41.37%	-16.78%
CCSc1cc(C(=O)N(C(C)C)C2CC2)ccn1	-3.344% and 7.551%	15.22%
COCc1cncc2c1CCN(Cc1cccs1)C2.O=C(O)C(F)(F)F.O=C(O)C(F)(F)F	-26.23%	-1.16% and 6.525%
O=C(Nc1ccc2c(c1)OCO2)Nc1cnn(C2CCOCC2)c1	-3.593%	3.64%
COC(=O)C(c1cc(F)ccc1F)N(C)C(=O)c1cccnc1O (stereo unspecified)	-28.33%	-15.5%
O=C(Nc1ccc(F)cc1)N(CCC(F)(F)F)C[C@H](O)CO	-13.26%	-4.017%
COc1c(CC2CC(C(=O)O)=NO2)c(Br)c2c(c1OC)OCO2 (stereo unspecified)	-4.903%	-7.135%
CCc1nnsc1C(=O)N1CCN(CC(O)C(C)(C)C)CC1 (stereo unspecified)	-7.512%	-21.29%
Cc1cc(NCCOCCS(C)(=O)=O)nc2ccccc12	-1.512% and 1.895%	6.324%
CCc1ncc(C(=O)NC(C)(C)C(=O)OC)s1	-41.79% and -1.289%	-12.47%
O=C(Nc1cc(-c2cccnc2)no1)C1CCC1	-6.949%	-33.75%
CC(NC(=O)c1ccoc1)C(=O)N(C)Cc1ccc(O)cc1 (stereo unspecified)	-2.889% and 15.98%	-6.3%
O=C(CC1CCC2(CC1)CCN(Cc1cccnc1)CC2)N1CC=CC1.O=C(O)C(F)(F)F.O=C(O)C(F)(F)F	15.09%	7.356%
CN1CCC(c2n[nH]c(=O)n2-c2cccc(Cl)c2)CC1	-22.92% and -7.943%	-38.71%
Cc1ccc(OCCNC(=O)C2CCOCC2)c(C)c1	-40.78%	-64.6%
O=C(O)C1CN(c2cccc(Cl)c2)CCO1 (stereo unspecified)	10.91%	7.359%
CCc1cnc(NCCCN2CCC(O)CC2)nc1	-22.22%	-20.43%
CC(C)c1cc(N(C)Cc2noc(C3CCCC3)n2)n2nccc2n1	53.81%	53.98%
Cc1ccc(CN(C)C(=O)c2n[nH]c(N)c2-c2ccccc2)o1	-23.35%	-2.18%
CSc1ccc(CNC2CCCc3c2cnn3C)cc1.Cl (stereo unspecified)	-2.493%	5.148%
O=C(NCCNc1ccc(C(F)(F)F)cn1)c1ccc(Cl)cc1F	49.64%	51.83%
O=C(NC1CC1)C1CCN(c2snc3ccccc23)CC1	-28.61%	-11.3%
Cl.O=c1c2sccc2nc2n1CCN(Cc1ccsc1)CC2	9.027%	11.23%
O=C(O)C(F)(F)F.O=C(O)C(F)(F)F.[H][C@@]12CN(Cc3ccco3)C[C@]1([H])[C@H](OC)CCN2Cc1ccoc1	15.42%	-9.119%
CN1CCC(NC(=O)CC2CN(Cc3ccccc3)CCO2)CC1 (stereo unspecified)	-15.52%	11.06%
CNC(=O)N(Cc1c(F)cccc1F)C1CCCC1	-14.39%	-13.12%
COCC(O)CN1CCC(=O)N(Cc2ccco2)Cc2ccccc21 (stereo unspecified)	-28.45%	-40.74%
[H][C@@]12CCN(Cc3cc(C)on3)C[C@@]1([H])O[C@@H](c1nccs1)C2	-14.22%	-0.9492%
O=C(c1cnc(-c2ccco2)s1)N1CCCCC1Cn1cccn1 (stereo unspecified)	11.87%	9.867%
Cc1oncc1C(=O)N1CCc2ncnc(-c3cnn(C)c3)c2CC1.O=C(O)C(F)(F)F	-1.132%	-2.305%
Cc1ccc(CNC(=O)CCC(=O)NCCC(C)C)o1	-10.77%	-23.79%
[H][C@]12CN(CCCC(=O)c3ccccc3)CC[C@@]1(O)CCN(S(C)(=O)=O)C2	12.2%	-11.14%
O=S(=O)(NCC1(O)CCOc2ccccc21)c1ccccc1Br (stereo unspecified)	32.84%	-6.635%
CCn1ccnc1C1CCN(c2ncnc3ccsc23)CC1	-14.55%	9.17%
COCC1COCCC12CCN(S(=O)(=O)c1ccccc1C)CC2 (stereo unspecified)	11.23%	-5.262%
Cc1ccc(S(N)(=O)=O)cc1C(=O)NC1CCCC1	4.682%	-15.63%
Cn1cncc1CN1CCOC(Cc2ccccc2)C1 (stereo unspecified)	6.791%	0.02382%
O=C1CC[C@H](C(=O)N(Cc2cccc(Br)c2)C2CC2)N1	28.72%	-11.4%
CC(C)c1noc(CCCC(=O)N2CCC(Cc3cccnc3)CC2)n1	15.02%	31.04%
NC(=O)c1ccc(CN2CCCC(N3CCCC3)C2)cc1 (stereo unspecified)	-3.283%	3.395% and 2.258%
CCc1ccc(CN2CCC3(CCCN(C(=O)c4cnccn4)C3)C2)o1.O=C(O)C(F)(F)F (stereo unspecified)	-1.188% and -4.543%	-14.22%
c1ccc(-c2nc(CNC3CCc4ncnn4C3)no2)cc1 (stereo unspecified)	-36.72%	-5.862%
CCC(C(=O)NC(C)(C)C)n1cccc(OC)c1=O (stereo unspecified)	-12.89%	-13.41%
Cn1nc(C(=O)N2CCOCC2)c2c1CN(CC1CC1)C2.O=C(O)C(F)(F)F.O=C(O)C(F)(F)F	13.51%	4.658%

Some entries from above, unchanged:

compound,Mtb glucose medium,Mtb cholesterol medium
COCC(O)CN1CCC(=O)N(Cc2ccco2)Cc2ccccc21 (stereo unspecified),-28.45%,-40.74%
CCc1ccc(CN2CCC3(CCCN(C(=O)c4cnccn4)C3)C2)o1.O=C(O)C(F)(F)F (stereo unspecified),-1.188% and -4.543%,-14.22%
O=C(O)C(F)(F)F.O=C(O)C(F)(F)F.[H][C@@]12CN(Cc3ccco3)C[C@]1([H])[C@H](OC)CCN2Cc1ccoc1,15.42%,-9.119%
Cc1ccc(OCCNC(=O)C2CCOCC2)c(C)c1,-40.78%,-64.6%

Data taken from ChEMBL document CHEMBL3988442, “University of Dundee, Small-Polar-MMV Screening Library” (2021).